# Measurements: PMC5334656, “McMYB12 Transcription Factors Co-regulate Proanthocyanidin and Anthocyanin Biosynthesis in Malus Crabapple”
# No signal at the amounts used counts as a negative. At least one verdict rests on a figure or table, not on a statement of the authors. Protein sequences can lack the tags named with them.
# How the values were obtained:
# [1] = biological target: T1, McMYB12a (Malus crabapple) (UniProt X2EXK4); assay: competition with a labelled probe; settings: 1000-fold mutant probe; LightShift Chemiluminescent EMSA Kit per manufacturer; 10 ug protein, 25 pmol biotin probe, 10- to 1000-fold competitor; pH and temperature not stated; recombinant protein; residues 1-364; label: biotin (text ambiguous)
# T1 sequence (looked up): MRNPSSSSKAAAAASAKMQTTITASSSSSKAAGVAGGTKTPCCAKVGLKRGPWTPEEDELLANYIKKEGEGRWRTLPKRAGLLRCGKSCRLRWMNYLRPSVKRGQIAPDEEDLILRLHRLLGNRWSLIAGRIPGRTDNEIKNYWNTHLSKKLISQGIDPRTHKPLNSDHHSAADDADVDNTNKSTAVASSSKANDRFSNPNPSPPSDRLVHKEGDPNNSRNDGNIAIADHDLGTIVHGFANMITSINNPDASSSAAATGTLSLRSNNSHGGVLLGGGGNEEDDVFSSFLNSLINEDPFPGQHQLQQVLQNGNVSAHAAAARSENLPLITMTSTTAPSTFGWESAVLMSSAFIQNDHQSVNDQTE
# [2] = biological target: T2, McMYB12b (Malus crabapple) (UniProt X2EZI4); assay: competition with a labelled probe; settings: 1000-fold mutant probe; LightShift Chemiluminescent EMSA Kit per manufacturer; 10 ug protein, 25 pmol biotin probe, 10- to 1000-fold competitor; pH and temperature not stated; recombinant protein; residues 1-374; label: biotin (text ambiguous)
# T2 sequence (looked up): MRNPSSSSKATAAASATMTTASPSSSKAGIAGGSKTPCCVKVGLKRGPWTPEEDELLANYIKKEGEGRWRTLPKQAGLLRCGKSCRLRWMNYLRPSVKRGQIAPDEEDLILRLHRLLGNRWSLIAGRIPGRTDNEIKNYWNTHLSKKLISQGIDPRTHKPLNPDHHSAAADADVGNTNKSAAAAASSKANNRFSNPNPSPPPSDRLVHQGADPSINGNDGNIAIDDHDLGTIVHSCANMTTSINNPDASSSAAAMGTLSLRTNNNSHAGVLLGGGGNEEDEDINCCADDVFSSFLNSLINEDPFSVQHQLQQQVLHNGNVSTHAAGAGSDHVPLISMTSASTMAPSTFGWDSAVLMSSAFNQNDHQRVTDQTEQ
Sequence,binding result [1],binding result [2]
AAGTATGGTATAAACACAGACTAAGCCTCATTATCAGATACATATCAT (double strand) [proMcLAR2 mutant probe],no binding,no binding
AGATCATTGCTCCTATTGGCTAAAATTAAGTGACCATTACTATAAT (double strand) [proMcANS mutant probe],no binding,no binding
ATTCTGAGTACTGTAGCACAAGTTGAAGTTGAATAATTGACGTCGTC (double strand) [proMcANR1 mutant probe],no binding,no binding
ATTGGGAGATATGTGCTCGTTTTAGAGTGCTTTTAAAATCAATTAAAAC (double strand) [proMcANR2 mutant probe],no binding,no binding
GCAACTCCTCCCATCAGTGTGGATCAAGCCACATACCCCGACTATTACT (double strand) [proMcCHS mutant probe],no binding,–
GGACAGAAATTGTACATACACCCTTTTCGTTAATGTTGCAAACTGAGT (double strand) [proMcLAR1 mutant probe],–,no binding
